No constants are given. Whether binding was seen depends on the method and setting. Binding seen in cells or lysates may run through a third protein. These calls come from enrichment with a bait or labelling near it, and not all partners need be listed. For part of these data: No binding means not detected with the bait.
B1: Nrm (protein, UniProt Q8VC65 1-262)
chain: MAPALLLVPAALASFILAFGTGVEFVRFTSLRPLLGGIPESGGPDARHGWLAALQDRSILASLAWDLCLLLLFVVQHSLMATEAVKAWTSRYFGVLQRSLYVACTALALQLVMRYWETTPRGPVLWEARAEPWATWVPLLCFVLHVVSWLLIFSILLVFDYAELMGLKQVYYHVLGLGEPLSLKSPRALRLFSHLRHPVCVELLTVLWVVPTLGTDRLLLALLFTLYLGLAHGLDQQDLRYLRSQLQRKLHLLSRPQDGEAE
B2: Cgrrf1 (protein, UniProt Q8BMJ7 1-332)
chain: MAAVFLVTLYEYSPLFYIAVVFTCFIVTTGLVLGWFGWDVPVILRNSEETQFSTRAFKKQMRQVKNPFGLEITNSSAASLATGMALRTDCLEDSRLTCYWGCSVQKLYEALQKHAYCFRISTPQALEEALYSDYLHREQYFIKKHSKEEIYCQLPSDTEIEDFGPVPRSRYPLVALLTLADEDDREIYDIISMVSVIHIPDKTYKLPCRILYQYLILAQGQFYDLKQLFMSANNSPPPSNDESPEDRSVEQSLLEKVGLAGNDGDPVEESSRDCVVCQNGGVNWVLLPCRHACLCDSCVRYFKQCPMCRQFVQESFALCGQKEPDKDLLETS
B3: Rnf185 (protein, UniProt Q91YT2 1-192)
chain: MASKGPSASASTENSNAGGPSGSSNGTGESGGQDSTFECNICLDTAKDAVISLCGHLFCWPCLHQWLETRPNRQVCPVCKAGISRDKVIPLYGRGSTGQQDPREKTPPRPQGQRPEPENRGGFQGFGFGDGGFQMSFGIGAFPFGIFATAFNINDGRPPPAVPGTPQYVDEQFLSRLFLFVALVIMFWLLIA
B4: Bfar (protein, UniProt Q8R079 1-450)
chain: MEEPQKNDLSMREQEEEHPVRSSGPQISVSEFSCHCCYDTLVNPTTLNCGHSFCRHCLALWWMSSKKTECPECREKWEGFPKVNILLRDAIEKLFPDAIRMRVEDIQQNNDVVQSLAAFQKYGNDQNPLAPSTGRVNPQRGGGFFSGVLTALTGVAVILLVYHWRSRESEHGLLVHKAVDKWTMEEVVLWLEQLGPWASLYRDRFLSERVNGRLLLTLTEEEFSRAPYTIENSSHRRVILTELERVRALGVKPPQNLWEYKAVNPGRSLFLLYALKSSPRLGLLYLYLFDYTDCFLPFIHTICPLQENSSGEDIFTKLLDLREPTWKQWREFLVKYSFLPYQLIAEFAWDWLEVHYWTSRFLIVNAVLLSVLELFSFWRIWSRSELKTVPQRMWSHFWKVSTQGLFMAMFWPLIPQFVCNCLFYWALYFNPIINIDLVVKEVRRLETQVL
B5: Lsg1 (protein, UniProt Q3UM18 1-644)
chain: MGRRRAPGGGSLGRVLIRQQTQRSRSHRHTDSWLHTSELNDGYDWGRLNLQSVTEQSSLEDFLATAELAGTEFVAEKLNIKFVPPEARTGLLSFEESQRIKKLHEENRQFLCIPRRPNWDRKTSPEELKQAEKDNFLKWRRQLVRLEEEQKLILTPFERNLDFWRQLWRVIERSDIVVQIVDARNPLLFRCEDLECYVKEIDAAKENVILINKADLLTAEQRFAWAVHFEKEGVKVIFWSALAETDHLNGDLKEEVDSVAGDTNKTESESSSLDANEIPHRDLISLSEESASDSGDSKYEDCQEDEEEDWQTCSEEDSVPEEEEGCNADSETQNRKNAENQQVNNDSYLVSKQELLELFKKLHTGKKVKDGQLTVGLVGYPNVGKSSTINTIMGNKKVSVSATPGHTKHFQTLYVEPGLCLCDCPGLVMPSFVSTKAEMICNGILPIDQMRDHVPPVSLVCQNIPRRVLEVTYGINIIKPREDEDPYRPPTSEELLTAYGCMRGFMTAHGQPDQPRSARYILKDYVGGKLLYCHPPPGKDPVAFQHQHQQLLESKVKGGELRLQPGKGRKAKQIENVVDKTFFHQENVRALTKGVQAVMGYKPGHGLVTAAAASAENVPGKPWKKHGNRNKKEKSRRLYKHLDV
B6: Lemd3/MAN1 (protein, UniProt Q9WU40 1-921)
chain: MAAATAAAAPQQLSDEELFSQLRRYGLSPGPVTESTRPVYLKKLKKLREEEQQQQQQQQQQQHRAGGRGNKTRNSNNNNTATAMGGRPGSGDLAYLRSPAGLGRLSASAAESPVAGGSGGAAAVPAAGSKVLLGFSSDESDVEASPREQAGGGGGGGARRDRAALQYRGLRAPPAPPAAGEVTGGHPGERRKPHSWWGARRPAGPEPQPPAAGSDGAAEDADEELADGEDRDPEAEEPLWASRAVNGSRLLPYSSCREHYSDSEEEEEEGEEDGDVAPARQVLKDDSLARHRPRRSHSKPFSALTAKSGGSRQETSVQGGGALAMNDRAAAAGSLDRSRNLEEAAAEPGGGGGGGCGCDPVDSIPRYRAGAKKLAPLLSPPSPDGDSTLESPTGPLLKTNNHIGGGAFGVDSPGLYANSLPPGATAAAAPGTLRINHANHTGSNHTYLKTAYGKPKLCEPEEELLQQFKREEVSPTGSFSAHYLSMFLLTAACLFFLILGLTYLGMRGTGVPEDGGLIKNPFDETFGKIQESEKNLLMSTLYKLHDRLAQIAGDHECGSSSQRMLSVQEAAAYLKNLGPEYEDVFNTSLLWIFKNGKDVGIRCVGYGPEEDLTNITDVQFLQSTRPQMPFWCRFRRAFITVTHRLLLLCLGVVLVCVALRYMRYRWTKEEEETRQMYDMVVKIIDVLRSHNEACQETKDLQPYMPLPHVRDSLIQPQDRKKMKKVWDRAVDFLAANESRVRTETRRVGGADFLVWRWIQPSASCDKTLVIPSKVWQGQAFHLDRRNSPPNSLTPCLKIRNMFDPVMEIGDHWHLAIQEAILEKCSDNDGIVHIAVDRNSREGCVYVKCLSPEYAGKAFKALHGSWFDGKLVTVKYLRLDRYHHRFPQALTCNTPLKPANKHMNSLSHLRLRTGLANSQGSS
B7: VAPA (protein, UniProt Q9WV55 1-249)
chain: MASASGAMAKHEQILVLDPPSDLKFKGPFTDVVTTNLKLQNPSDRKVCFKVKTTAPRRYCVRPNSGIIDPGSIVTVSVMLQPFDYDPNEKSKHKFMVQTIFAPPNISDMEAVWKEAKPDELMDSKLRCVFEMPNENDKLNDMEPSKAVPLNASKQDGPLPKPHSVSLNDTETRKLMEECKRLQGEMMKLSEENRHLRDEGLRLRKVAHSDKPGSTSAVSFRDNVTSPLPSLLVVIAAIFIGFFLGKFIL
B8: lamin B1 (protein, UniProt P14733 1-588)
chain: MATATPVQQQRAGSRASAPATPLSPTRLSRLQEKEELRELNDRLAVYIDKVRSLETENSALQLQVTEREEVRGRELTGLKALYETELADARRALDDTARERAKLQIELGKFKAEHDQLLLNYAKKESDLSGAQIKLREYEAALNSKDAALATALGDKKSLEGDLEDLKDQIAQLEASLSAAKKQLADETLLKVDLENRCQSLTEDLEFRKNMYEEEINETRRKHETRLVEVDSGRQIEYEYKLAQALHEMREQHDAQVRLYKEELEQTYHAKLENARLSSEMNTSTVNSAREELMESRMRIESLSSQLSNLQKESRACLERIQELEDMLAKERDNSRRMLSDREREMAEIRDQMQQQLSDYEQLLDVKLALDMEISAYRKLLEGEEERLKLSPSPSSRVTVSRASSSRSVRTTRGKRKRVDVEESEASSSVSISHSASATGNVCIEEIDVDGKFIRLKNTSEQDQPMGGWEMIRKIGDTSVSYKYTSRYVLKAGQTVTVWAANAGVTASPPTDLIWKNQNSWGTGEDVKVILKNSQGEEVAQRSTVFKTTIPEEEEEEEEEPIGVAVEEERFHQQGAPRASNKSCAIM
B9: Sun1 (protein, UniProt Q9D666 1-913)
chain: MDFSRLHTYTPPQCVPENTGYTYALSSSYSSDALDFETEHKLEPVFDSPRMSRRSLRLVTTASYSSGDSQAIDSHISTSRATPAKGRETRTVKQRRSASKPAFSINHLSGKGLSSSTSHDSSCSLRSATVLRHPVLDESLIREQTKVDHFWGLDDDGDLKGGNKAATQGNGELAAEVASSNGYTCRDCRMLSARTDALTAHSAIHGTTSRVYSRDRTLKPRGVSFYLDRTLWLAKSTSSSFASFIVQLFQVVLMKLNFETYKLKGYESRAYESQSYETKSHESEAHLGHCGRMTAGELSRVDGESLCDDCKGKKHLEIHTATHSQLPQPHRVAGAMGRLCIYTGDLLVQALRRTRAAGWSVAEAVWSVLWLAVSAPGKAASGTFWWLGSGWYQFVTLISWLNVFLLTRCLRNICKVFVLLLPLLLLLGAGVSLWGQGNFFSLLPVLNWTAMQPTQRVDDSKGMHRPGPLPPSPPPKVDHKASQWPQESDMGQKVASLSAQCHNHDERLAELTVLLQKLQIRVDQVDDGREGLSLWVKNVVGQHLQEMGTIEPPDAKTDFMTFHHDHEVRLSNLEDVLRKLTEKSEAIQKELEETKLKAGSRDEEQPLLDRVQHLELELNLLKSQLSDWQHLKTSCEQAGARIQETVQLMFSEDQQGGSLEWLLEKLSSRFVSKDELQVLLHDLELKLLQNITHHITVTGQAPTSEAIVSAVNQAGISGITEAQAHIIVNNALKLYSQDKTGMVDFALESGGGSILSTRCSETYETKTALLSLFGVPLWYFSQSPRVVIQPDIYPGNCWAFKGSQGYLVVRLSMKIYPTTFTMEHIPKTLSPTGNISSAPKDFAVYGLETEYQEEGQPLGRFTYDQEGDSLQMFHTLERPDQAFQIVELRVLSNWGHPEYTCLYRFRVHGEPIQ

Protein sequences, listed by entry. Tags and fused reporters are not part of them. Lines headed by an entry give the natural chain unless they say otherwise; changes in a name come on top.
UniProt O08579: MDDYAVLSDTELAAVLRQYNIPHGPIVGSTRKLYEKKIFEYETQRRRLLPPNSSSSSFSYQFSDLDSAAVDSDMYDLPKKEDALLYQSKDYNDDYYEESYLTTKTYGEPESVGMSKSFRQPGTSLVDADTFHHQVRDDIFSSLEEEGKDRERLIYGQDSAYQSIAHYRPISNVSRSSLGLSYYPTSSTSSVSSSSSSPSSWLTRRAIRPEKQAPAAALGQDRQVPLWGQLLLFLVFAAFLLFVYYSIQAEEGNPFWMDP
UniProt Q3U9G9: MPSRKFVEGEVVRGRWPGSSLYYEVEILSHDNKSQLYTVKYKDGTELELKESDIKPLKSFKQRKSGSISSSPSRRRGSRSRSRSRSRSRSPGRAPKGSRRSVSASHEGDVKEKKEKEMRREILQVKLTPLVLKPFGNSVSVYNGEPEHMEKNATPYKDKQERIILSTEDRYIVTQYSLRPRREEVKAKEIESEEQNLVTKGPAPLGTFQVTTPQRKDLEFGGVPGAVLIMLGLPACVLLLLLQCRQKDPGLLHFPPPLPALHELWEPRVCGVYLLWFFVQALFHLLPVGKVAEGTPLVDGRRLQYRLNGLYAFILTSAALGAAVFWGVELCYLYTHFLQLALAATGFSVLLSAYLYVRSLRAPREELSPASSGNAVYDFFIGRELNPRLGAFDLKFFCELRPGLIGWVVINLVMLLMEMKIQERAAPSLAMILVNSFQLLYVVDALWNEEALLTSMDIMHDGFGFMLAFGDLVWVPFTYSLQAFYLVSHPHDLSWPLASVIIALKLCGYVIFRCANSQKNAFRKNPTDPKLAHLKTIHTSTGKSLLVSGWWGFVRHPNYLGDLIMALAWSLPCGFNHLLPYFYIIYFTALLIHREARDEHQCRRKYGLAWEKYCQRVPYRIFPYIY
UniProt Q921T2: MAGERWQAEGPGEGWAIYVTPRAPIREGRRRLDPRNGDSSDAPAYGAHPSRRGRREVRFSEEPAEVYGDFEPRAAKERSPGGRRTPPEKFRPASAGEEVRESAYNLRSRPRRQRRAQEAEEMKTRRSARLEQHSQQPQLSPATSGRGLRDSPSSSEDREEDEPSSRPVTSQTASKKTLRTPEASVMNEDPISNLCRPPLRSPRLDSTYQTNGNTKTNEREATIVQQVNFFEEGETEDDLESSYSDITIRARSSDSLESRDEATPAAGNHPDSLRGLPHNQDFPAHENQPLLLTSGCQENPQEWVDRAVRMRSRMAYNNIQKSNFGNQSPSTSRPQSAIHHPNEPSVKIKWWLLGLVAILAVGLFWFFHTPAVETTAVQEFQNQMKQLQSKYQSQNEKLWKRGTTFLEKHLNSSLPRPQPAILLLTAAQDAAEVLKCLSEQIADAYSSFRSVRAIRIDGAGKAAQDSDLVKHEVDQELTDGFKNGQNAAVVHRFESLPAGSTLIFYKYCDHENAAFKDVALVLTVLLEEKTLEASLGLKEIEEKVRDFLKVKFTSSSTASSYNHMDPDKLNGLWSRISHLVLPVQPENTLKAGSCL
UniProt P23198: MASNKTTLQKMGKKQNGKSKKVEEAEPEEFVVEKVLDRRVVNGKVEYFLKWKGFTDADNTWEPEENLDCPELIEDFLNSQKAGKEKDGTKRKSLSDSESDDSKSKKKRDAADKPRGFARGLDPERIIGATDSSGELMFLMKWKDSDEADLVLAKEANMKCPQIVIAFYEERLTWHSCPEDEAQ
UniProt Q61686: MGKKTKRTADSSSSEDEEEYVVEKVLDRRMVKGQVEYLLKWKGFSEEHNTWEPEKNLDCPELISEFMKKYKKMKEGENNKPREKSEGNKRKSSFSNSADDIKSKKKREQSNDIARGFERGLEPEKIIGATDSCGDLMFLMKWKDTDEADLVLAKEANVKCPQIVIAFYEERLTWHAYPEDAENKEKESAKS
UniProt Q6DVA0: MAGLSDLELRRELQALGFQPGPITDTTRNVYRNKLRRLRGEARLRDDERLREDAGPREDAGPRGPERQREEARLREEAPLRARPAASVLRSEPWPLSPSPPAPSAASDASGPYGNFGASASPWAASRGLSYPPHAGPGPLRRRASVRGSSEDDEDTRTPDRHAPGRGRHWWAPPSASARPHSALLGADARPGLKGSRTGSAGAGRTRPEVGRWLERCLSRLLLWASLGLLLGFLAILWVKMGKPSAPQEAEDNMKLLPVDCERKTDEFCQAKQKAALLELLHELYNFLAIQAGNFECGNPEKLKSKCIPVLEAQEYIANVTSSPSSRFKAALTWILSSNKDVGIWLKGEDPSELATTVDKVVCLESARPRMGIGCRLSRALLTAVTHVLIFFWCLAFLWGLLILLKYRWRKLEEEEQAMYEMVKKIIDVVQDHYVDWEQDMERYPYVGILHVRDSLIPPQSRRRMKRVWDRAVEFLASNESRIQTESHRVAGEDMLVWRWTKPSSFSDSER
UniProt Q8VEL0: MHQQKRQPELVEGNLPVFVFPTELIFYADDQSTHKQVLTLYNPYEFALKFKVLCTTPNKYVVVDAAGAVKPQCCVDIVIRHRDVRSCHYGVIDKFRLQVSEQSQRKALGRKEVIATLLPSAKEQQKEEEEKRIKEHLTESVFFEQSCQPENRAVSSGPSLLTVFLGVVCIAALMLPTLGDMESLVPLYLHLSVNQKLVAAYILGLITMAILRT

Legend:
[1] = molecular target: V5-tagged TbID fused to the N-terminus of emerin (mouse (cDNA library from C3H/10T1/2 cells)) (UniProt O08579); test: proximity labelling
[2] = molecular target: V5-tagged TbID fused to the N-terminus of LBR (mouse (cDNA library from C3H/10T1/2 cells)) (UniProt Q3U9G9); test: proximity labelling

binding [1]	binding [2]	Molecule
binds		TOR1AIP1 (from UniProt Q921T2 1-595)
	binds	HP1-γ (Cbx3) (from UniProt P23198 1-183)
	binds	HP1-α (Cbx5) (from UniProt Q61686 1-191)
binds	no binding	Lemd2 (from UniProt Q6DVA0 1-511)
binds		Mospd1 (from UniProt Q8VEL0 1-213)
binds	no binding	B1
binds	binds	B2
binds	binds	B3
binds	binds	B4
binds	binds	B5
binds		B6
binds		B7
	binds	B8
binds	binds	B9

Reference: paper doi:10.1101/2022.05.11.491529
